No constants are given. Whether binding was seen depends on the method and setting. For some assays here: Binding seen in cells or lysates may run through a third protein. Some binding calls cover weakened binding; strength is not graded here. Sequences can lack the tags named with a protein.
Columns and labels:
[1] = target: eGFP-ATG2A overexpressed in HEK293A cells (UniProt Q2TAZ0); experiment: co-IP; GFP-TRAP beads on lysates of HEK293A cells overexpressing GFP-ATG2A and 3×FLAG-6×His-ATG9A or -ATG9B; TNTE buffer (0.5% Triton X-100), overnight at 4°C; western blot
[2] = target: 3×FLAG-ATG2A expressed in Expi293 cells, co-purified with ATG9B (UniProt Q2TAZ0); experiment: cryo-EM 2D class averages of the co-purified complex; cells expressing ATG9B and cells expressing ATG2A mixed after resuspension; complex purified on anti-FLAG resin and by SEC in LMNG-CHS, then imaged; no 3D reconstruction obtained; both purified

By UniProt entry, the sequences of proteins in these tests, tags left out.
UniProt Q2TAZ0: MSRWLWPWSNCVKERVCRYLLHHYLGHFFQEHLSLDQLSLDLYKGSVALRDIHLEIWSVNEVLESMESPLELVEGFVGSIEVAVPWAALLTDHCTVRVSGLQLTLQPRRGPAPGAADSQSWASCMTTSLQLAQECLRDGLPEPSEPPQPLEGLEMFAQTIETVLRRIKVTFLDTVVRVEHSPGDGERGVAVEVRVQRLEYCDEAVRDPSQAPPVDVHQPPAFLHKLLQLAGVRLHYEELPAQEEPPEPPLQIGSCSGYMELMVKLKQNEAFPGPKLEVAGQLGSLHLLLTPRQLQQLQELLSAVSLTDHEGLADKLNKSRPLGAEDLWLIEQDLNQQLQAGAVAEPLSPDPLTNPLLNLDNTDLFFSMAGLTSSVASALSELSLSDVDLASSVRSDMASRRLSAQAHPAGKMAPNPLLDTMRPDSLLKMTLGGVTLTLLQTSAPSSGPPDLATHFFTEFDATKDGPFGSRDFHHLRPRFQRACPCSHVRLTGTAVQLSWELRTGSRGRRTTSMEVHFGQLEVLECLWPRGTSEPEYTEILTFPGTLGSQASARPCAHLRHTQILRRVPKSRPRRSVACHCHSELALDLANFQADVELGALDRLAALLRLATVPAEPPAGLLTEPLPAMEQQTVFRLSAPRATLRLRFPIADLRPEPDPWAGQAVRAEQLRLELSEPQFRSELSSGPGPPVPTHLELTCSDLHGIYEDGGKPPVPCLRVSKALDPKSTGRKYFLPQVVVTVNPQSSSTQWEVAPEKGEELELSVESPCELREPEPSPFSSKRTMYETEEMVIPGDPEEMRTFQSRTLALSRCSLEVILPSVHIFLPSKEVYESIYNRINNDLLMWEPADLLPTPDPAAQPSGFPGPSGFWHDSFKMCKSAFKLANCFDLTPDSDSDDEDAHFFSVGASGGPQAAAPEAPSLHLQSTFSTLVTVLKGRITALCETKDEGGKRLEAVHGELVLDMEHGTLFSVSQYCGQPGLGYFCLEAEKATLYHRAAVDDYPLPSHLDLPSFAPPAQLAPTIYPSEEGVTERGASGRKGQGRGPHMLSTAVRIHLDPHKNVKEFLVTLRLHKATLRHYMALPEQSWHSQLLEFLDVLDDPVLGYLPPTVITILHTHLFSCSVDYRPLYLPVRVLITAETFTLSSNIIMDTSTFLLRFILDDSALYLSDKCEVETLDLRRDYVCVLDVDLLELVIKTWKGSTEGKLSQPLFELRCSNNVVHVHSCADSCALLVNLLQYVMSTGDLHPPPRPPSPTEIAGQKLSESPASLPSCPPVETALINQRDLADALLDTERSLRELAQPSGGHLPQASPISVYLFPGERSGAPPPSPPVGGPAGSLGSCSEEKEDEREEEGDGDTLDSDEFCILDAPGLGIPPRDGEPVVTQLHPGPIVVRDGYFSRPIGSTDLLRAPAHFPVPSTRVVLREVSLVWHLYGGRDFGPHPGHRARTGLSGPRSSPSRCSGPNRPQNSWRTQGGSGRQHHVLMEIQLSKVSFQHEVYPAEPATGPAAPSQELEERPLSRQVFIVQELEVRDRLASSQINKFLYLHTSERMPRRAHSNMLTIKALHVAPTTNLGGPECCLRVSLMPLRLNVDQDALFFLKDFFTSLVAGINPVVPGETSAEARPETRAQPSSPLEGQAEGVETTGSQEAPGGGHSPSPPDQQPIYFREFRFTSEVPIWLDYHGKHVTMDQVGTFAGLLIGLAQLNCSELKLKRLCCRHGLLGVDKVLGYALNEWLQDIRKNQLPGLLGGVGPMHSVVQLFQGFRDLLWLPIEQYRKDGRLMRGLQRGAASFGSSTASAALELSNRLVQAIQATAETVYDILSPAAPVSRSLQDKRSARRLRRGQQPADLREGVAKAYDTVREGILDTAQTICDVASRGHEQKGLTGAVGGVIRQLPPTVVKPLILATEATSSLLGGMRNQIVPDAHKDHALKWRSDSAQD

binding [1] | binding [2] | Binder
binds | – | 3×FLAG-His6-TEV-ATG9B overexpressed in HEK293A cells (protein, UniProt Q674R7-1 1-924) MVSRMGWGGRRRRLGRWGDLGPGSVPLLPMPLPPPPPPSCRGPGGGRISIFSLSPAPHTRSSPSSFSPPTAGPPCSVLQGTGASQSCHSALPIPATPPTQAQPAMTPASASPSWGSHSTPPLAPATPTPSQQCPQDSPGLRVGPLIPEQDYERLEDCDPEGSQDSPIHGEEQQPLLHVPEGLRGSWHHIQNLDSFFTKIYSYHQRNGFACILLEDVFQLGQFIFIVTFTTFLLRCVDYNVLFANQPSNHTRPGPFHSKVTLSDAILPSAQCAERIRSSPLLVLLLVLAAGFWLVQLLRSVCNLFSYWDIQVFYREALHIPPEELSSVPWAEVQSRLLALQRSGGLCVQPRPLTELDIHHRILRYTNYQVALANKGLLPARCPLPWGGSAAFLSRGLALNVDLLLFRGPFSLFRGGWELPHAYKRSDQRGALAARWGRTVLLLAALNLALSPLVLAWQVLHVFYSHVELLRREPGALGARGWSRLARLQLRHFNELPHELRARLARAYRPAAAFLRTAAPPAPLRTLLARQLVFFAGALFAALLVLTVYDEDVLAVEHVLTAMTALGVTATVARSFIPEEQCQGRAPQLLLQTALAHMHYLPEEPGPGGRDRAYRQMAQLLQYRAVSLLEELLSPLLTPLFLLFWFRPRALEIIDFFHHFTVDVAGVGDICSFALMDVKRHGHPQWLSAGQTEASLSQRAEDGKTELSLMRFSLAHPLWRPPGHSSKFLGHLWGRVQQDAAAWGATSARGPSTPGVLSNCTSPLPEAFLANLFVHPLLPPRDLSPTAPCPAAATASLLASISRIAQDPSSVSPGGTGGQKLAQLPELASAEMSLHVIYLHQLHQQQQQQEPWGEAAASILSRPCSSPSQPPSPDEEKPSWSSDGSSPASSPRQQWGTQKARNLFPGGFQVTTDTQKEPDRASCTD
– | binds | 3×FLAG-6×His-TEV-ATG9B (full-length human ATG9B), purified from Expi293 cells (natural protein, UniProt Q674R7-1 1-924, looked up, ATG9B, human, canonical isoform 1 (Q674R7-1), full length; residues 191-674 visible in the cryo-EM map; A TEV site lies between the 6×His tag and ATG9B; no cleavage is described; Eluted from the anti-FLAG resin with 3×FLAG peptide; In LMNG-CHS micelles; also called ATG9B homotrimer; pcDNA3.1-3×FLAG-6×His-TEV-ATG9B; source: Expi293, transiently transfected, extracted into detergent micelles, …) MVSRMGWGGRRRRLGRWGDLGPGSVPLLPMPLPPPPPPSCRGPGGGRISIFSLSPAPHTRSSPSSFSPPTAGPPCSVLQGTGASQSCHSALPIPATPPTQAQPAMTPASASPSWGSHSTPPLAPATPTPSQQCPQDSPGLRVGPLIPEQDYERLEDCDPEGSQDSPIHGEEQQPLLHVPEGLRGSWHHIQNLDSFFTKIYSYHQRNGFACILLEDVFQLGQFIFIVTFTTFLLRCVDYNVLFANQPSNHTRPGPFHSKVTLSDAILPSAQCAERIRSSPLLVLLLVLAAGFWLVQLLRSVCNLFSYWDIQVFYREALHIPPEELSSVPWAEVQSRLLALQRSGGLCVQPRPLTELDIHHRILRYTNYQVALANKGLLPARCPLPWGGSAAFLSRGLALNVDLLLFRGPFSLFRGGWELPHAYKRSDQRGALAARWGRTVLLLAALNLALSPLVLAWQVLHVFYSHVELLRREPGALGARGWSRLARLQLRHFNELPHELRARLARAYRPAAAFLRTAAPPAPLRTLLARQLVFFAGALFAALLVLTVYDEDVLAVEHVLTAMTALGVTATVARSFIPEEQCQGRAPQLLLQTALAHMHYLPEEPGPGGRDRAYRQMAQLLQYRAVSLLEELLSPLLTPLFLLFWFRPRALEIIDFFHHFTVDVAGVGDICSFALMDVKRHGHPQWLSAGQTEASLSQRAEDGKTELSLMRFSLAHPLWRPPGHSSKFLGHLWGRVQQDAAAWGATSARGPSTPGVLSNCTSPLPEAFLANLFVHPLLPPRDLSPTAPCPAAATASLLASISRIAQDPSSVSPGGTGGQKLAQLPELASAEMSLHVIYLHQLHQQQQQQEPWGEAAASILSRPCSSPSQPPSPDEEKPSWSSDGSSPASSPRQQWGTQKARNLFPGGFQVTTDTQKEPDRASCTD

— publication PMC10936676, “ATG9B is a tissue-specific homotrimeric lipid scramblase that can compensate for ATG9A” (Autophagy, 2023)
